Laboratory results as given in article PMC11831433.
Results are given in words; binding and its absence hold for the method and conditions named. For part of these data: Binding seen in cells or lysates may run through a third protein. Some results given as binding are weak or reduced against the parent protein; the word gives no strength. Sequences can lack the tags named with a protein.

The chains behind the UniProt entries cited, without tags or fusion partners.
UniProt Q9R1K5: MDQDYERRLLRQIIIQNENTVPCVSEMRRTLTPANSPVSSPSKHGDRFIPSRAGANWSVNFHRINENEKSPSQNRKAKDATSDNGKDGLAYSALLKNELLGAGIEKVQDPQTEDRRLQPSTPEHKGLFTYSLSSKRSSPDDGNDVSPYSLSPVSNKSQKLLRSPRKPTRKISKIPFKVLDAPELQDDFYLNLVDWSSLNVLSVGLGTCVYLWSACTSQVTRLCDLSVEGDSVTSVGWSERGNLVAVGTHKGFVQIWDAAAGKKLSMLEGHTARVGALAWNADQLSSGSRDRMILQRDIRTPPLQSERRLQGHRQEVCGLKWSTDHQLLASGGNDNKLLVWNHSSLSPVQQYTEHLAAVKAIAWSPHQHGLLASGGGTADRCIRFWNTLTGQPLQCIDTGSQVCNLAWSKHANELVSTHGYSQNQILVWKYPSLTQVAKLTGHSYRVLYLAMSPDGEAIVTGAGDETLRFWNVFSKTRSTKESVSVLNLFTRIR
UniProt P24860: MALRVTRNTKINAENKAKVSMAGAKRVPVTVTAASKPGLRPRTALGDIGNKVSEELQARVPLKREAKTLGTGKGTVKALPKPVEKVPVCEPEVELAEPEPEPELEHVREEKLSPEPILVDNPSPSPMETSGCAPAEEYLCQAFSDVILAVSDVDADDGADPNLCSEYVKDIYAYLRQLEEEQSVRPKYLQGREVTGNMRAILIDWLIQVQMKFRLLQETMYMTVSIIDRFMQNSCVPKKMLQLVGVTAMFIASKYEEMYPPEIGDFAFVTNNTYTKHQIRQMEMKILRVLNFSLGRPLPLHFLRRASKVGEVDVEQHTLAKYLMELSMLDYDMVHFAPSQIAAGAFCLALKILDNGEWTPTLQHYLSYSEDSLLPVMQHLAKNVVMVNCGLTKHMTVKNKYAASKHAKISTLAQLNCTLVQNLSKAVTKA

Tests used:
[1] = target: T1, NUSAP fused to Gal4-BD (pGBKT7-NUSAP) (UniProt Q9ERH4); test: two-hybrid; NUSAP on Gal4-BD (pGBKT7) as bait, preys on Gal4-AD (pGADT7); yeast strain Y2HGold; growth on SD/-Ade/-His/-Leu/-Trp, 3-4 days at 30 °C
T1 sequence: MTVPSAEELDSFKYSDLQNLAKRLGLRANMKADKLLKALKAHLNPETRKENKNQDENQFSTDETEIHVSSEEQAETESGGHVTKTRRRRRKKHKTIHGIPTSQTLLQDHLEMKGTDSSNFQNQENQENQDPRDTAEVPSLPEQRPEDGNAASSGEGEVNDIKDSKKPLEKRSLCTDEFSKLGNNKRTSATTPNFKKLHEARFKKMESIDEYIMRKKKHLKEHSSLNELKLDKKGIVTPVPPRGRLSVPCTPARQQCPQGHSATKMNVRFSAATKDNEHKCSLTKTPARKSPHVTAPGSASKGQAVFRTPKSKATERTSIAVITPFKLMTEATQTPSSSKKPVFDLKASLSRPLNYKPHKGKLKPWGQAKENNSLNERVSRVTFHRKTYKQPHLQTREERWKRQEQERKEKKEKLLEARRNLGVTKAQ

[2] = target: T2, BTRC-Flag (UniProt Q3ULA2); test: co-IP; mouse oocytes microinjected with cRNAs of both tagged proteins, 4 hours in 200 µM IBMX; lysate precipitated with anti-Flag beads (16 hours, 4 °C), blotted with Flag and HA antibodies
T2 sequence: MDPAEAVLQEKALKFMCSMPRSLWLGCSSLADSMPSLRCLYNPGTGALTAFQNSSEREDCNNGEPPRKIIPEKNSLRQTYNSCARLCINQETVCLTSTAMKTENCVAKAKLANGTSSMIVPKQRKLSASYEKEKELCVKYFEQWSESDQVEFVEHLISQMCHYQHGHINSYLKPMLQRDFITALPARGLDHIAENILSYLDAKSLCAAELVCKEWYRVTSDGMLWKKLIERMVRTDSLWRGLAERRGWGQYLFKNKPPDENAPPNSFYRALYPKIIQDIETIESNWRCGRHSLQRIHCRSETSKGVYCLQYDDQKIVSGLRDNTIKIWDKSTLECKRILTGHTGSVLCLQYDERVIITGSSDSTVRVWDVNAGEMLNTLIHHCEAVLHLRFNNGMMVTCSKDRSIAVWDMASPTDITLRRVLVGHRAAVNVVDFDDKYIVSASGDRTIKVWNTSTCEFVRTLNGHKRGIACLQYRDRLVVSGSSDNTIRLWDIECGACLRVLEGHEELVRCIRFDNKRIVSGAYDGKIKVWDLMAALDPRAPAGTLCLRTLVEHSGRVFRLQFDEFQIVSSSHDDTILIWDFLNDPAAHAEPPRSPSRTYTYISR

[3] = target: T3, NUSAP-Flag (UniProt Q9ERH4); test: as above
T3 sequence: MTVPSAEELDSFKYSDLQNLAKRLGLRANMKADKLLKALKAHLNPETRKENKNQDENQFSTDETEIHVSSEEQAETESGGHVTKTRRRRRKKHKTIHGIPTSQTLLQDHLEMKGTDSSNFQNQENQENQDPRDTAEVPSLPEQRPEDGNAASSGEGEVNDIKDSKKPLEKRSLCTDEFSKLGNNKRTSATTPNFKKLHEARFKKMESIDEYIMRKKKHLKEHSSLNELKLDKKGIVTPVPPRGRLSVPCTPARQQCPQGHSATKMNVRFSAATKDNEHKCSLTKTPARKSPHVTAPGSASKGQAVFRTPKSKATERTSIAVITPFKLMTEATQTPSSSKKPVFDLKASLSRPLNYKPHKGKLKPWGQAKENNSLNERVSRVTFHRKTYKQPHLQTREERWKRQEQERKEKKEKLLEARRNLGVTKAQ

[4] = target: CDH1-HA (UniProt Q9R1K5); test: co-IP; mouse oocytes microinjected with CDH1-HA and BTRC-Flag cRNA, 4 hours in 200 µM IBMX; precipitated with anti-HA beads, blotted with HA and Flag antibodies

Molecule	binding [1]	other results
Cyclin B1 fused to Gal4-AD (pGADT7-Cyclin B1) (from UniProt P24860 1-430)	no binding	–
CDH1 fused to Gal4-AD (pGADT7-CDH1) (from UniProt Q9R1K5 1-493)	binds	–
CDH1-HA (from UniProt Q9R1K5 1-493)	–	binding [2]: binds; binding [3]: binds
BTRC-Flag (protein, UniProt Q3ULA2 1-605) MDPAEAVLQEKALKFMCSMPRSLWLGCSSLADSMPSLRCLYNPGTGALTAFQNSSEREDCNNGEPPRKIIPEKNSLRQTYNSCARLCINQETVCLTSTAMKTENCVAKAKLANGTSSMIVPKQRKLSASYEKEKELCVKYFEQWSESDQVEFVEHLISQMCHYQHGHINSYLKPMLQRDFITALPARGLDHIAENILSYLDAKSLCAAELVCKEWYRVTSDGMLWKKLIERMVRTDSLWRGLAERRGWGQYLFKNKPPDENAPPNSFYRALYPKIIQDIETIESNWRCGRHSLQRIHCRSETSKGVYCLQYDDQKIVSGLRDNTIKIWDKSTLECKRILTGHTGSVLCLQYDERVIITGSSDSTVRVWDVNAGEMLNTLIHHCEAVLHLRFNNGMMVTCSKDRSIAVWDMASPTDITLRRVLVGHRAAVNVVDFDDKYIVSASGDRTIKVWNTSTCEFVRTLNGHKRGIACLQYRDRLVVSGSSDNTIRLWDIECGACLRVLEGHEELVRCIRFDNKRIVSGAYDGKIKVWDLMAALDPRAPAGTLCLRTLVEHSGRVFRLQFDEFQIVSSSHDDTILIWDFLNDPAAHAEPPRSPSRTYTYISR	–	binding [4]: binds
SECURIN fused to Gal4-AD (pGADT7-SECURIN) (protein, UniProt Q9CQJ7 1-199) MATLIFVDKDNEEPGRRLASKDGLKLGTGVKALDGKLQVSTPRVGKVFNAPAVPKASRKALGTVNRVAEKPMKTGKPLQPKQPTLTGKKITEKSTKTQSSVPAPDDAYPEIEKFFPFNPLDFESFDLPEEHQISLLPLNGVPLMTLNEERGLEKLLHLGPPSPLKTPFLSWESDPLYSPPSALSTLDVELPPVCYDADI	no binding	–
